The other results are listed elsewhere or left out. The main result of the screen is listed elsewhere. These columns were measured beside it and carry no call. The list favours compounds with an active or inconclusive main result. Words in brackets tell the shape of the fitted curve; partial curves, single points and poor fits give uncertain potencies.
Test: qHTS Assay for Lipid Storage Modulators in Drosophila S3 Cells;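 as to cell number change: cells counted by Cell Tracker Red CMTPX staining in the red channel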
Details: BODIPY lipid droplet fluorescence, 18-24 h; for cell number change: measured here: cell count max response, cells fed with added oleic acid
Method in brief: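 Drosophila S3 cells got compounds at several concentrations plus oleic acid (400 uM solution). Laser-scanning cytometry with 488 nm excitation read lipid droplets at 500-530 nm and cells at 575-640 nm. Percent activity was relative to 20 uM Triacsin C.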

[1] = measured here: lipid fluorescence (Fed channel) AC50, cells fed with added oleic acid
[2] = measured here: cell number channel AC50, cells fed with added oleic acid

SMILES	cell number change [%]	AC50 [1]	AC50 [2]
COc1cccc(C2CC(=O)N3CN(c4ccccc4F)CSC3=C2C#N)c1 (stereo not given)	-12.5	0.92 µM [falling, full curve]	
COc1cc(CCC(=O)NNC(=O)c2cccc(Cl)c2)cc(OC)c1OC	-7.14	6.51 µM [falling, partial curve, poor fit]	
O=C(NC(=S)N(CCCCO)C1CCCCC1)c1sc2ccccc2c1Cl	-11	0.13 µM [rising, partial curve, poor fit]	
CN1C2CCC1CC(NC(=O)c1ccc([N+](=O)[O-])cc1)C2 (stereo not given)	-28.9		
CC(NC(=O)c1ccc(CS(=O)(=O)c2cccc(C(F)(F)F)c2)o1)c1ccc2c(c1)OCCO2 (stereo not given)			2.91 µM [rising, single point]
c1ccc(COc2ccc(CNCc3cccnc3)cc2)cc1	-5.23		
COC(=O)CSc1nnc([C@H](CC(C)C)NC(=O)OC(C)(C)C)o1	-9.27	20.6 µM [falling, single point]	
Cc1ccc2nc3c(cc(C(=O)NC4CCS(=O)(=O)C4)n3Cc3ccccc3)c(=O)n2c1 (stereo not given)	12.2	16.4 µM [rising, single point]	
COc1ccccc1/C=C/C=N/NC(=O)c1ccccn1	-30.8		23.1 µM [falling, single point]
O=C(CN1C(=O)/C(=C\C=C\c2ccccc2)SC1=S)Nc1ccc(F)cc1	-44.1		
Cc1csc2c(NC3CCN(Cc4ccccc4)CC3)ncnc12	-1.22	0.0231 µM [falling, full curve, poor fit]	0.82 µM [falling, full curve]
O=C(COc1cccc2c1CCN(Cc1ccc(Br)cc1)C2=O)N1CCOCC1	26.3		
O=C1[C@H]2[C@@H](c3ccc(F)cc3)N3C(=O)N(c4cccc(Br)c4)C(=O)[C@@]3(Cc3ccccc3)[C@H]2C(=O)N1C1CCCCC1	-24.5	29.1 µM [falling, partial curve]	
CC(=O)Nc1nnc(SCC(=O)c2ccc3c(c2)Cc2ccccc2-3)s1	13.8	6.51 µM [rising, partial curve]	
C/C(=N\NC(=O)c1c(Cl)cnn1C)c1ccc(NC(=O)c2ccncc2)cc1	19.2	13 µM [rising, partial curve, poor fit]	
CC(=O)N1CSCC1C(=O)O (stereo not given)	-19.8	0.116 µM [falling, full curve]	
Cc1c(OCC(=O)N2CCC(C(N)=O)CC2)ccc2c3c(c(=O)oc12)CCC3	24.6		
CCN(CC)S(=O)(=O)c1cccc2cccnc12		8.2 µM [falling, partial curve]	
CCC(=O)N(CC(=O)Nc1sc(C)c(C)c1C(N)=O)C1CCCC1	0.588	0.651 µM [rising, full curve, poor fit]	
Cc1ccc(Nc2ncnc3sc(C)c(C)c23)cc1C	6.58		1.3 µM [rising, full curve]
Cc1ccc(C(C)C)c(OCCNCCc2ccccc2)c1	-47.2	18.4 µM [falling, single point]	13 µM [falling, partial curve, poor fit]

Given in CSV form: entries from further up.
SMILES,cell number change [%],AC50 [1],AC50 [2]
O=C(CN1C(=O)/C(=C\C=C\c2ccccc2)SC1=S)Nc1ccc(F)cc1,-44.1,,
Cc1csc2c(NC3CCN(Cc4ccccc4)CC3)ncnc12,-1.22,"0.0231 µM [falling, full curve, poor fit]","0.82 µM [falling, full curve]"

(further entries)

SMILES	cell number change [%]	AC50 [1]	AC50 [2]
CCCCn1c(N)c(N(CCOC)C(=O)COC(=O)C(C)Oc2ccc(Cl)cc2)c(=O)[nH]c1=O (stereo not given)	1.25	10.3 µM [falling, partial curve, poor fit]	0.517 µM [falling, full curve, poor fit]
O=C1c2ccccc2N2C(=O)c3ccccc3C2N1Cc1ccco1 (stereo not given)	0.96		
CC[C@@H](C)[C@H](NC(=O)CCc1c(C)c2cc3c4c(oc3c(C)c2oc1=O)CCCC4)C(=O)O	26.2	3.26 µM [rising, single point]	2.91 µM [rising, full curve, poor fit]
O=C(CN1C(=O)C2C3C=CC(C3)C2C1=O)NCCN1CCCc2ccccc21 (stereo not given)	-4.71	0.231 µM [rising, full curve]	
COc1ccc(NC(=O)CN(C)Cc2cccs2)cc1Cl	-6.67		
NC(=O)C1CCN(C(=O)c2cc3n(n2)C(C(F)(F)F)CC(c2ccco2)N3)CC1 (stereo not given)	33.9	2.91 µM [falling, single point]	0.731 µM [rising, full curve, poor fit]
COc1ccc(S(=O)(=O)NCCCCCC(=O)O)cc1C(=O)O	0.82		0.146 µM [falling, full curve, poor fit]
Cc1cc(N/N=C/c2ccccc2)nc(N2CCOCC2)n1	-5.23	6.51 µM [rising, single point]	
C/C(=N/NC(=O)CN1CCN(Cc2ccccc2Cl)CC1)c1cccs1	14.4	5.17 µM [rising, single point]	
COc1cc(C(=O)Nc2ccc3oc(-c4cccnc4)nc3c2)cc(OC)c1OC	48.6		0.461 µM [rising, full curve, poor fit]
COc1cc2c(cc1NC(=O)COCC(=O)O)oc1ccccc12	59.2	29.1 µM [rising, single point]	9.2 µM [rising, partial curve, poor fit]
Cc1ccc(NC(=O)c2ccc(S(=O)(=O)N3CCOCC3)cc2)c(C)c1	-22.4		
CCNS(=O)(=O)c1ccc(NC(=O)Nc2ccc3c(c2)OCO3)cc1	-3.47		
S=C(NC1CCCC1)N1CCN(C/C=C/c2ccccc2)CC1	-42.7		1.16 µM [falling, full curve, poor fit]
O=C(CN1CCCC1)Nc1cccc(Cl)c1Cl	20.4	29.1 µM [rising, single point]	0.00461 µM [rising, full curve, poor fit]
CC(C)(C)NC(=O)C(=O)NN=C1CCCCCC1	22.4	0.651 µM [rising, full curve, poor fit]	
O=C(Nc1nccs1)c1cc2c(s1)-c1ccccc1OC2	-31.2	2.06 µM [rising, partial curve]	2.06 µM [falling, full curve]
Cc1c(C(=O)Nc2nccs2)oc2ccc(F)cc12	2.86	1.16 µM [falling, single point]	
Cc1ccc(Nc2nc(NCCCN3CCOCC3)nc(N)c2[N+](=O)[O-])cc1	-8.19	16.4 µM [rising, partial curve, poor fit]	
O=C(CN(Cc1ccccc1)C(=O)CCC(=O)Nc1nccs1)NCC1CCCO1 (stereo not given)	-1.28	5.17 µM [rising, single point]	
CC(=O)N1CCN(C(=O)c2cccc(S(=O)(=O)N3CCN(c4ccc(F)cc4)CC3)c2)CC1	36		14.6 µM [rising, single point]

No new results follow: entries from further up.
SMILES	cell number change [%]	AC50 [1]	AC50 [2]
CC[C@@H](C)[C@H](NC(=O)CCc1c(C)c2cc3c4c(oc3c(C)c2oc1=O)CCCC4)C(=O)O	26.2	3.26 µM [rising, single point]	2.91 µM [rising, full curve, poor fit]
O=C(CN1C(=O)C2C3C=CC(C3)C2C1=O)NCCN1CCCc2ccccc21 (stereo not given)	-4.71	0.231 µM [rising, full curve]	

Next part:

SMILES	cell number change [%]	AC50 [1]	AC50 [2]
O=C(Nc1cccc(CCc2ccccn2)c1)c1cc(F)c(F)cc1Cl	13.7	0.103 µM [rising, full curve, poor fit]	
CCOc1ccc(NC(=S)NC(=O)c2cnn(CC)c2)c([N+](=O)[O-])c1	-26.2	16.4 µM [falling, single point]	
O=C(c1ccc2snnc2c1)N1CCSCC1	5.39	0.00517 µM [falling, full curve, poor fit]	
CC(NC(=O)COC(=O)CC(c1ccccc1)c1ccccc1)c1ccccc1 (stereo not given)	8.99		0.82 µM [falling, single point]
O=C(CCSc1ccccc1)NC1CCCCCC1	-6.37		
CCn1c(CNC(=O)c2ccccc2Br)nnc1SCC(=O)NC1=NCCS1	17.9		
CC(O)(C#CCN1CCCCCC1)c1ccccc1 (stereo not given)	-5.79		
O=C(COc1cccc(F)c1)NNC(=O)c1cccc(-n2cccc2)c1			0.0731 µM [falling, full curve, poor fit]
CCOc1ccc(S(=O)(=O)Nc2ccccc2C(=O)Nc2ccccc2N2CCOCC2)cc1			3.26 µM [rising, partial curve]
C=CCNc1nnc(Cc2ccc(F)cc2)c(=O)[nH]1	16.5		0.00651 µM [rising, full curve, poor fit]
COc1ccc(NC(=O)c2cc(-c3ccc4c(c3)OCO4)on2)cc1OC	0.42		
CN(C)c1ccc(/C=C/C(=O)c2ccccc2)cc1[N+](=O)[O-]	-12.2	4.61 µM [falling, partial curve]	
CC[N+](CC)(CC)CC(=O)Nc1ccc(SC(F)F)cc1	-22.5		
CCOc1ccc(CCNC(=O)COC(=O)COc2ccc(C#N)cc2)cc1OCC	15.1	0.517 µM [falling, single point]	
CCC(=O)Nc1nc2ccccc2n1CCN1CCOCC1	0.471		
O=C(CSCc1nc2scc(-c3cccs3)c2c(=O)[nH]1)Nc1ccccn1	-7.09		
O=[N+]([O-])c1ccccc1N/N=C1\CC2CC=CC12 (stereo not given)	-44.2	0.0164 µM [falling, full curve, poor fit]	
CCN(c1ccc(OC)cc1)S(=O)(=O)c1ccc2c(c1)CC(C)N2C(=O)C1CC1 (stereo not given)	-22.4	29.1 µM [falling, single point]	
Cc1ccc(S(=O)(=O)N2CCOCC2)cc1NC(=O)CN1C(=O)CN(C)C1=O	4.87		2.91 µM [falling, single point]
CCOc1ccccc1NC(=O)c1cc(-c2cc(OC)c(OC)c(OC)c2)nc2ccccc12	-5.56	6.51 µM [falling, single point]	
COc1ccc2c(=O)c3c(=O)n(-c4ccccc4)c(-c4ccco4)nc3oc2c1	25.4	20.6 µM [rising, single point]	4.61 µM [rising, full curve, poor fit]

Source: PubChem BioAssay AID2685 (National Center for Advancing Translational Sciences (NCATS), 2010)
